Publication doi:10.1101/2024.09.10.612331
The exact form of at least one protein or probe is not confirmed. For some assays here: A negative result means that nothing was seen under these conditions. For some assays here: At least one verdict was read from the data and is not stated in words by the source. For some assays here: Whether high values mean tight binding is not given here for every scale.

The chains behind the UniProt entries cited, without tags or fusion partners. Residues count along the entry.
UniProt O35137, 197-262: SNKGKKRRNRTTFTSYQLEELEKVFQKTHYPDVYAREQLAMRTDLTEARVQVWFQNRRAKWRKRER
UniProt O35137, 158-291 K199E: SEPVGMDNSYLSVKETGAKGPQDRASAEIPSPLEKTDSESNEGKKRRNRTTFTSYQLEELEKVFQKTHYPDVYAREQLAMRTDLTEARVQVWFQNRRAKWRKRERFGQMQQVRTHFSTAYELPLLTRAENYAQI
UniProt O35137, 158-291 Q213E: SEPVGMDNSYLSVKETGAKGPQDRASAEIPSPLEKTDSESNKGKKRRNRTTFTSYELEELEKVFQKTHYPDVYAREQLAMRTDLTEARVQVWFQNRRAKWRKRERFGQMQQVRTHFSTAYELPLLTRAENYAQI
UniProt O35137, 158-291 R203A: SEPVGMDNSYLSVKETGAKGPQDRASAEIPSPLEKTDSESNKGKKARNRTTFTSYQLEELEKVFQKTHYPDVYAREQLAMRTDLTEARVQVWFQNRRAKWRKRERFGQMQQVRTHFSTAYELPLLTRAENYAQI
UniProt O35137, 158-291 R204A: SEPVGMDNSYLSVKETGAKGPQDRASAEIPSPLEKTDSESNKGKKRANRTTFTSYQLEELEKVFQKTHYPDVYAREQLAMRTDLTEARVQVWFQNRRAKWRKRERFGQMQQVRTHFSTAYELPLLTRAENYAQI
UniProt O35137, 158-291 R204G: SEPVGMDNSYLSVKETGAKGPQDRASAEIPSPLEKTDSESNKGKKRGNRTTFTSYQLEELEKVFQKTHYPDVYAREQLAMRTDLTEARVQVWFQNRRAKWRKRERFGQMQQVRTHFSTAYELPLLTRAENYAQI
UniProt O35137, 158-291 R206Q: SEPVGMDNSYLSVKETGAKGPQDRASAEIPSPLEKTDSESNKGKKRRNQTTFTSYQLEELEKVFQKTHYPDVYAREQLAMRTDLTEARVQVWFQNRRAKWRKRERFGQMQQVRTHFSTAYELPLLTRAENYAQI
UniProt O35137, 158-291 R260P: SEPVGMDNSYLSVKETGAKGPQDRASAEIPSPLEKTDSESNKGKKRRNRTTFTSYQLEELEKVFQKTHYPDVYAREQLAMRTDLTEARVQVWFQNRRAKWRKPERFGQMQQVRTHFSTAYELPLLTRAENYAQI
UniProt O35137, 158-291 V229R: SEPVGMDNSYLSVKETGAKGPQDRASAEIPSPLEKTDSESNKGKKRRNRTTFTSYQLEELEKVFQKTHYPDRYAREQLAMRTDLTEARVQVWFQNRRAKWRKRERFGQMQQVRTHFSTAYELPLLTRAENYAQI
UniProt O35137, 158-291, stated change not applied: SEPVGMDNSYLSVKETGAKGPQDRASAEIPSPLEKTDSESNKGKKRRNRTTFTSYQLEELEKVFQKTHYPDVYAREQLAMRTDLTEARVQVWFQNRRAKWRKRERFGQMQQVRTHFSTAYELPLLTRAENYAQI

How the values were obtained:
Experiment in all cases: EMSA
ALX4 HD = ALX4 HD (UniProt O35137); conditions: residues 197-262
ALX4 K211E K199E = ALX4 K211E K199E (UniProt O35137); conditions: no substantial reduction in cooperativity
ALX4 Q225E Q213E = ALX4 Q225E Q213E (UniProt O35137); conditions: reduced cooperativity
ALX4 R215A R203A = ALX4 R215A R203A (UniProt O35137); conditions: reduced cooperativity
ALX4 R216A R204A = ALX4 R216A R204A (UniProt O35137); conditions: reduced cooperativity
ALX4 R216G R204G = ALX4 R216G R204G (UniProt O35137); conditions: reduced cooperativity
ALX4 R218Q R206Q = ALX4 R218Q R206Q (UniProt O35137)
ALX4 R272P R260P = ALX4 R272P R260P (UniProt O35137); conditions: no substantial reduction in cooperativity
ALX4 V241R V229R = ALX4 V241R V229R (UniProt O35137); conditions: cooperativity abolished, second-site binding hindered
[1] = biological target: ALX4 WT (ITC, mutant-series EMSA) (UniProt O35137); conditions: cooperative reference for variants

## TGTGTCTTAATTAGATTAACGCACTTGATAGTGCGGGCGTGGCT (double strand) [P3 site EMSA probe]
ALX4 HD
  binding signal (Tau (cooperativity factor)): 110
ALX4 K211E K199E
  binding result: binds
ALX4 Q225E Q213E
  binding signal (fold reduction in Tau vs WT): 2
ALX4 R215A R203A
  binding signal (fold reduction in Tau vs WT): 5
ALX4 R216A R204A
  binding signal (fold reduction in Tau vs WT): 10
ALX4 R216G R204G
  binding signal (fold reduction in Tau vs WT): 10
ALX4 R218Q R206Q
  binding result: no binding
ALX4 R272P R260P
  binding result: binds
ALX4 V241R V229R
  binding signal (Tau (cooperativity factor)): 0.327
[1]
  binding result: binds

## TGTGTCTTAATTAGGATTAACGCACTTGATAGTGCGGGCGTGGCT (double strand) [P4 site EMSA probe]
ALX4 HD; no preferential dimer binding
  binding signal (Tau (cooperativity factor)): 1.5
